US5053336A, “Monoclonal antibodies for the separate detection of halodeoxyuridines and method for their use” (Regents of the University of California, priority 1989, dated 1991)
For at least one compound, name, drawing or mass did not settle the structure.

Experiments:
[1] = tested on: monoclonal antibodies Br-1, Br-3 and Br-5; experiment: competition ELISA, summary for the bromine-specific antibodies; assay type: binding, mouse (SJL/Jax); details: monoclonal antibodies of the preferred example
[2] = tested on: monoclonal antibody IU-4 (Vanderlaan, et al, 1986); details: IU-4 used with FITC-goat-anti-mouse antibody; cited from earlier work

Row | Structure (SMILES) | binding specificity relative to iododeoxyuridine [1] | specificity for IdU [2] [uMolar]
1 | O=c1[nH]c(=O)n([C@H]2C[C@H](O)[C@@H](CO)O2)cc1Br [brominated deoxyuridine, bromodeoxyuridine] | more than fifty fold | 
2 | O=c1[nH]c(=O)n([C@H]2C[C@H](O)[C@@H](CO)O2)cc1I [IdU, iododeoxyuridine] |  | 0.5
